Results taken from article PMC11004410.

Amino acid sequences for entries named in this document (tags omitted). A change or cut given only in a name is not applied to a line headed by its entry.
UniProt P02647: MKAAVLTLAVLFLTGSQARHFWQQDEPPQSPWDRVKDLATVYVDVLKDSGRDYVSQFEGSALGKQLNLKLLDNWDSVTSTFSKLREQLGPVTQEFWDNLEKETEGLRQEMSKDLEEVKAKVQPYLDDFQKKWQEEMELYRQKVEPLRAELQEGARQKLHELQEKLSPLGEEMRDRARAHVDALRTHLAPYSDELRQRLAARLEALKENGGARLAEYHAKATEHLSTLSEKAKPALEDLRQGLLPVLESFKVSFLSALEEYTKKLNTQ

Target: T1, GFP-SR-B1 (fusion protein) (UniProt Q8WTV0)
T1 sequence: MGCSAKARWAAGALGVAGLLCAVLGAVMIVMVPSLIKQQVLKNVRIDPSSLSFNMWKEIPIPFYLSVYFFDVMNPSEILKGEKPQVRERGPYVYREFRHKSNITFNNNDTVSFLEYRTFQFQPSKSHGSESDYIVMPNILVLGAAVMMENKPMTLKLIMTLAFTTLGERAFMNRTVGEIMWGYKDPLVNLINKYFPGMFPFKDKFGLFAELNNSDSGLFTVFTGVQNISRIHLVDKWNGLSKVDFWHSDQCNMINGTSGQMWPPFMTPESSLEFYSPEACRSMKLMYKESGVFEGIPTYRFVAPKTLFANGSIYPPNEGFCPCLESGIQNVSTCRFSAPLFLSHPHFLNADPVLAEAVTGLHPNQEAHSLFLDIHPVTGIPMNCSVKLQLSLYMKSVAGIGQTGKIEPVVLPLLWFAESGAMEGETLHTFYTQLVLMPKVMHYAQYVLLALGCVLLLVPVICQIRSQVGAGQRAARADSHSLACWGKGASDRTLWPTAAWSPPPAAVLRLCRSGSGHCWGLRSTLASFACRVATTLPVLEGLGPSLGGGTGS
Test: pull-down; GFP-SR-B1 or GFP alone from HeLa lysate immobilised on GFP nanotrap beads overnight at 4°C, washed 3x with lysis buffer; APOA1 variant protein (10 or 20 μg) added in PBS, 1 ml, 4°C, 3 h; washed 3x-4x with high salt (1.5 M) PBS; Western blot with anti-APOA1 and anti-GFP; bands normalised to immobilised SR-B1-GFP and to input; both purified

In the case of “recombinant wild-type apolipoprotein A1 (APOA1-WT), from ClearColi (from UniProt P02647)”, the binding is reported as “binds”.

These are yes or no findings as the source states them, for the method shown. In cells and extracts the contact can be indirect. Binding calls can cover weak binding; strength is not graded here. Where a sequence is shown, tags or fusion partners need not be part of it.
